# Data as given in PubChem BioAssay AID1053208 (Peter MacCallum Cancer Centre, 2014)
# Purpose: 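Genes whose silencing cuts survival of bone tumour cells only with doxorubicin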 (primary screen)
# Cell system: mouse osteosarcoma cells, early-passage culture from an engineered mouse model of fibroblastic bone tumour
# Reagents: siRNA pool against mouse genes, 40 nM
# Duration: about 120 h (48 h before drug, then 72 h with drug)
# Challenge: doxorubicin 100 nM for 72 h, roughly 30-40% inhibitory dose
# Measured: 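Luminescent ATP signal taken as viability with or without 100 nM doxorubicin for 72 h; mean of two wells set against non-targeting siRNA and turned into robust z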
# Direction: viability z-score with doxorubicin: higher = more viable cells under doxorubicin; viability z-score without drug: higher = more viable cells with knock-down alone
# Hit rule: 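a pool counts as active when its viability z-score with doxorubicin is -2 or below and its z-score without drug lies between -2 and 2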
# The whole screen tested about 17,000 reagents; below is an unselected part. Over the whole deposit, 788 (4.7%) were called active. 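Calls rest on z-score classes alone; an extra cut-off of viability at most 70% of control was not applied to them.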 Further read-outs or replicates are left out here.
combined z-score class,viability z-score with doxorubicin,viability z-score without drug,Outcome,Gene
no change with or without drug,0.67,1.85,inactive,Fxyd7
no change with or without drug,-0.22,1.52,inactive,Itgbl1
no change with or without drug,-0.9,0.51,inactive,Or7g21
no change with or without drug,0.22,1.52,inactive,Gzmc
low cell count with and without drug,-4.05,-3.2,inactive,Polr2k
no change with or without drug,0.45,0.17,inactive,Adgre5
no change with or without drug,1.01,-0.51,inactive,Kif23
no change with or without drug,-0.9,0.34,inactive,Pcdhgb4
no change with or without drug,-1.12,-1.18,inactive,Gfra2
no change with or without drug,-0.22,-0.17,inactive,Rin3
no change with or without drug,-0.22,0.51,inactive,Ube2d3
no change with or without drug,0.67,0.17,inactive,Defb20
no change with or without drug,1.8,0.84,inactive,Pmvk
no change with or without drug,0.22,0.34,inactive,Shbg
no change with or without drug,-1.91,-1.35,inactive,Abhd8
no change with or without drug,-1.35,0.51,inactive,Pcp4
no change with or without drug,0,0.17,inactive,Adi1
no change with or without drug,0.45,0.17,inactive,Ptpn21
no change with or without drug,0.9,1.52,inactive,Scx
low cell count with doxorubicin only,-2.92,-0.67,active,Cdc50a
no change with or without drug,0.45,0.17,inactive,Sh3bp1
no change with or without drug,-0.45,-0.17,inactive,B3galt5
high cell count without drug only,0.79,2.87,inactive,Rarb
no change with or without drug,0.9,0.17,inactive,Synrg
no change with or without drug,1.24,1.18,inactive,A730018C14Rik
no change with or without drug,0,0,inactive,Krt75
high cell count with doxorubicin only,2.36,0.51,inactive,Orm1
no change with or without drug,1.8,0.34,inactive,Gstm3
no change with or without drug,0.22,0.84,inactive,Fam91a1
no change with or without drug,-0.9,-0.17,inactive,Dspp
no change with or without drug,0.22,0.84,inactive,Mmp1a
no change with or without drug,-0.34,0.84,inactive,Gnal
no change with or without drug,0.67,0.51,inactive,Dnmt3a
no change with or without drug,0.79,1.18,inactive,Mc4r
no change with or without drug,0.34,1.01,inactive,Ehhadh
no change with or without drug,0.9,1.52,inactive,Pard6b
no change with or without drug,0.79,0.17,inactive,Ear10
no change with or without drug,-0.22,-0.17,inactive,Fev
no change with or without drug,-0.22,-0.51,inactive,Tbrg4
no change with or without drug,0.45,0.84,inactive,Omd
no change with or without drug,1.69,1.18,inactive,Cd151
no change with or without drug,0,-0.17,inactive,Vmn1r17
no change with or without drug,-0.9,-1.18,inactive,Tg
no change with or without drug,-0.9,0.67,inactive,Cntf
high cell count with doxorubicin only,2.25,-0.34,inactive,Togaram2
no change with or without drug,1.12,1.18,inactive,Cnih3
no change with or without drug,0.45,1.52,inactive,Hras
no change with or without drug,-0.45,-0.17,inactive,Sema6d
no change with or without drug,-0.9,1.01,inactive,Srgap3
no change with or without drug,1.57,0,inactive,Wipi2

5 of these entries, set out differently.
| combined z-score class | viability z-score with doxorubicin | viability z-score without drug | Outcome | Gene |
| --- | --- | --- | --- | --- |
| no change with or without drug | 0.45 | 0.84 | inactive | Omd |
| no change with or without drug | 1.69 | 1.18 | inactive | Cd151 |
| no change with or without drug | 0 | -0.17 | inactive | Vmn1r17 |
| no change with or without drug | -0.9 | -1.18 | inactive | Tg |
| no change with or without drug | -0.9 | 0.67 | inactive | Cntf |
